The source of these data is publication PMC6036117, “Structural Insight Into Conformational Changes Induced by ATP Binding in a Type III Secretion-Associated ATPase From Shigella flexneri” (Frontiers in Microbiology, 2018).

These are yes or no findings as the source states them, for the method shown.

Assay [1] concerns the target Spa47Δ1-83 (surface presentation antigens 47, residues 84-430) (Shigella flexneri) (UniProt P0A1C1). Kind of assay: crystal structure; unliganded Spa47Δ1-83 crystal, two monomers in the asymmetric unit; interfaces analysed with PDBePISA; both purified.
The target is the same in assay [2]. Kind of assay: SEC; Superdex 75 10/300GL, 20 mM Tris-HCl pH 8.0, 100 mM NaCl, calibrated with molecular weight standards, flow 0.15 ml/min; both purified.

With “Spa47Δ1-83 (surface presentation antigens 47, residues 84-430) (from UniProt P0A1C1 84-430) (domain or fragment)”, the binding entry in assay [1] and in assay [2] was “no binding” in each case.
